PubChem BioAssay AID1259405 – NCATS | 2018

Test: 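Knock-downs that lift recombinant protein yield in hamster ovary cells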 (primary screen)
Cell system: Chinese hamster CHO-K1 ovary cells with stable secreted eGFP expression
Reagent: single siRNA against mouse genes, 0.8 pmol siRNA per well (2 µl of 400 nM stock)
Duration: 3 days
Read-out: 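Percent of the per-plate non-targeting control median for intracellular GFP per well by laser scanning cytometry and for cell viability by ATP luminescence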
Scale: GFP, % of control: higher = more GFP per well, higher productivity
Hit rule: 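a knock-down is called active if GFP reaches 120% or more of non-targeting control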
This is one part, drawn at random, of about 50,000 reagents tested. About 4,000 of them (8%) were called active. 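Mouse siRNA library applied to hamster cells; one well for each siRNA.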 Entries without a mark were called inactive. Reagents against one gene are numbered here. Further read-outs or replicates are left out here.

GFP, % of control, by gene and reagent
Pls3 (plastin 3 (T-isoform)): #1 65.4; #2 89.9
Plekho2 (pleckstrin homology domain containing O2): #1 51; #2 66.7; #3 70.7
Cxxc4 (CXXC finger 4): #1 71.6; #2 75.2; #3 53.7
Miga1 (mitoguardin 1): #1 34.1; #2 89.9; #3 89.5
Rpl36a (ribosomal protein L36A): #1 64.6; #2 73.6; #3 37.9
Or5p52 (olfactory receptor family 5 subfamily P member 52): #1 109; #2 103; #3 103
Ankrd22 (ankyrin repeat domain 22): #1 53.4; #2 56.5; #3 82.5
Foxq1 (forkhead box Q1): #1 74.1; #2 47.2
Oc90 (otoconin 90): #1 88.9; #2 79.5; #3 57.1
Cacng3 (calcium channel, voltage-dependent, gamma subunit 3): #1 73.2; #2 96.2; #3 67.9
Samd12 (sterile alpha motif domain containing 12): #1 100; #2 65.1; #3 122 (active)
Spink1 (serine peptidase inhibitor, Kazal type 1): #1 125 (active); #2 37.1; #3 105
Letm2 (leucine zipper-EF-hand containing transmembrane protein 2): #1 55.4; #2 54.1; #3 85.9
Trim37 (tripartite motif-containing 37): #1 73.9; #2 42; #3 57.9
Dtnb (dystrobrevin, beta): #1 140 (active); #2 47.1
Utp15 (UTP15 small subunit processome component): #1 69.5; #2 60.6; #3 71.6
Lpcat1 (lysophosphatidylcholine acyltransferase 1): #1 64.8; #2 154 (active); #3 58.5
Pnmt (phenylethanolamine-N-methyltransferase): #1 123 (active); #2 95.7; #3 72.2
Nkrf (NF-kappaB repressing factor): #1 25.5; #2 59.2; #3 111
Psg21 (pregnancy-specific beta-1-glycoprotein 21): #1 112; #2 67.3; #3 86.9
